Test results taken from PubChem BioAssay AID504444 (National Center for Advancing Translational Sciences (NCATS), 2011).
About 7,500 (2.1%) of roughly 360,000 compounds were called active. The inconclusive results got no clear call from the source; some entries with a clear call stand among them for comparison. Calls follow the shape of the dose curve; as a rule, active = well fitted inhibition curve with a large enough effect; inconclusive = small, poorly fitted or top-dose-only effect, or effect the other way; inactive = flat fitted curve, though single readings scatter. Where the call is inconclusive, the potency comes from a doubtful curve fit.

test: Nrf2 qHTS screen for inhibitors; details: A549 ARE-Fluc reporter, luciferase luminescence, 18-24 h; activity change, negative = inhibition: at 46 µM (top of the series); also: nearly all actives have a fitted effect of over 60% in size
Procedure, shortened: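 Nrf2 function is reported as luminescence of an ARE-controlled luciferase in A549 cells. Compounds were tested at several concentrations, and a CellTiter-Fluor read on the same wells flagged cytotoxicity.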
% is scaled to controls: 0 for no effect and ±100 for the full control effect; potency is read from the fitted curve at half-maximal effect.

**Q.** For `COC(=O)N1C(=O)[C@](c2ccsc2)(C(C)C)N1C(=O)OC`, which Potency is on record?
**A.** inconclusive: 20.6 µM [falling, partial curve]

**Q.** For `CCOC(=O)c1cn2nc(N3CCCC3)ccc2n1`, which Potency is on record?
**A.** inconclusive: 0.13 µM [activator, full curve, poor fit]

**Q.** For `CCCn1c(NC(=O)c2cccc(S(=O)(=O)N3CCCC3)c2)nc2ccccc21`, which Potency is on record?
**A.** active: 7.31 µM

**Q.** Which Potency does the source give for `COc1ccc(NC(=O)CS(=O)CC(=O)NC2CCCc3ccccc32)cc1` (centres undefined) here?
**A.** inconclusive: 25.9 µM [falling, partial curve, poor fit]

**Q.** With `CCCN1CCC(NC(=O)Cc2cccc(C)c2)CC1` as the molecule, how does the “activity change, negative = inhibition” value read?
**A.** inactive: 0.0872%

**Q.** With `CCOC(=O)c1ccc(NC(=O)CCc2nnc3ccc(N4CCN(C)CC4)nn23)cc1` as the molecule, how does the Potency read?
**A.** inconclusive: 29.1 µM [falling, single point]

**Q.** Which Potency does the source give for `O=C(c1cccs1)N(Cc1nc2sc3c(c2c(=O)[nH]1)CCCC3)C1CCCC1` here?
**A.** inconclusive: 4.61 µM [activator, full curve]

**Q.** For `COc1cc(C(=O)NNC(=S)NC(=O)c2ccc3c(c2)OCO3)cc(OC)c1OC`, which Potency is on record?
**A.** inconclusive: 23.1 µM [activator, single point]

**Q.** Which “activity change, negative = inhibition” value does the source give for `Cc1ccccc1NC(=O)NCC1CCCO1` (centres undefined) here?
**A.** inactive: -0.881%

**Q.** For `CN(C)S(=O)(=O)c1ccc(C(=O)NCC(C)(C)CN=C2NS(=O)(=O)c3ccccc32)cc1`, which Potency is on record?
**A.** inconclusive: 13 µM [falling, partial curve]

**Q.** For `O=C1CN(C(=O)COc2ccc(Cl)cc2Cl)C(c2ccccc2)c2cc(F)ccc2N1` (centres undefined), which activity change, negative = inhibition is on record?
**A.** inactive: 3.01% [at 9.27 µM]

**Q.** For `CCc1ccc(-c2cc(C)no2)cc1S(=O)(=O)N1CCCN(Cc2ccc(F)cc2)C1`, which Potency is on record?
**A.** inconclusive: 0.82 µM [activator, full curve, poor fit]

**Q.** For `Cc1c(NC(=O)/C=C/c2ccc(S(=O)(=O)N3CCOCC3)cc2)c(=O)n(-c2ccccc2)n1C`, which “activity change, negative = inhibition” value is on record?
**A.** inactive: 0.503%

**Q.** Which “activity change, negative = inhibition” value does the source give for `O=c1c2ccccc2nc2c3ccccc3cnn12` here?
**A.** inactive: 28.6%

**Q.** Which Potency does the source give for `C(=N\N1CCN(C2c3ccccc3-c3ccccc32)CC1)/c1ccncc1` here?
**A.** inconclusive: 14.6 µM [falling, partial curve, poor fit]

**Q.** With `COc1cc(Cl)ccc1OCc1cc(C(=O)NC(C)Cc2cnccn2)no1` (centres undefined) as the molecule, how does the Potency read?
**A.** inconclusive: 5.17 µM [activator, full curve]

**Q.** Which “activity change, negative = inhibition” value does the source give for `O=C(NCCc1cccs1)C1CC(c2cccc(F)c2)=NO1` (centres undefined) here?
**A.** inactive: -14.2%

**Q.** With `Cc1cc2c([nH]c3ccccc32)c2c1OC(C)(C)C=C2` as the molecule, how does the Potency read?
**A.** inconclusive: 29.1 µM [activator, single point]

**Q.** With `COc1ccc(/C=N/NC(C)(C)C)c(OC)c1` as the molecule, how does the Potency read?
**A.** inconclusive: 20.6 µM [activator, partial curve, poor fit]
